# Reference: publication PMC2219390 (The Journal of General Physiology, 1996)
# System: rat brain voltage-dependent sodium channels (BTX-modified)
# Assay type: biochemical
structure (smiles),measurement,setting,value
CCN(CC)CC(=O)Nc1c(C)cccc1C [lidocaine],block of the small subconductance channel state (~6 pS),"30 mM lidocaine (0.2 M NaCl) or 0.4 mM QX-314 (0.5 M NaCl), Fig. 7",did not block
same,reduction in the koff rate with change of NaCl concentration,"0.5 vs 0.2 M NaCl, Table I part B",50%
same,kon (binding rate),"Table I B, symmetrical 0.5 M NaCl, 150mV as printed, mean SEM, n = 3","2,124+-78 mM-1s-1"
